From article PMC7071683
Results are given in words; binding and its absence hold for the method and conditions named. Some binding calls cover weakened binding; strength is not graded here.

Amino acid sequences for entries named in this document (tags omitted). A change or cut given only in a name is not applied to a line headed by its entry. Residues count along the entry.
UniProt O43915, residues 89-205: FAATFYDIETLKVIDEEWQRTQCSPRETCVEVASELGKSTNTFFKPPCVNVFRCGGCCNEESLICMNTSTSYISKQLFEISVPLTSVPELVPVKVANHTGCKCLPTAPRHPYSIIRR
UniProt P35916, residues 25-775: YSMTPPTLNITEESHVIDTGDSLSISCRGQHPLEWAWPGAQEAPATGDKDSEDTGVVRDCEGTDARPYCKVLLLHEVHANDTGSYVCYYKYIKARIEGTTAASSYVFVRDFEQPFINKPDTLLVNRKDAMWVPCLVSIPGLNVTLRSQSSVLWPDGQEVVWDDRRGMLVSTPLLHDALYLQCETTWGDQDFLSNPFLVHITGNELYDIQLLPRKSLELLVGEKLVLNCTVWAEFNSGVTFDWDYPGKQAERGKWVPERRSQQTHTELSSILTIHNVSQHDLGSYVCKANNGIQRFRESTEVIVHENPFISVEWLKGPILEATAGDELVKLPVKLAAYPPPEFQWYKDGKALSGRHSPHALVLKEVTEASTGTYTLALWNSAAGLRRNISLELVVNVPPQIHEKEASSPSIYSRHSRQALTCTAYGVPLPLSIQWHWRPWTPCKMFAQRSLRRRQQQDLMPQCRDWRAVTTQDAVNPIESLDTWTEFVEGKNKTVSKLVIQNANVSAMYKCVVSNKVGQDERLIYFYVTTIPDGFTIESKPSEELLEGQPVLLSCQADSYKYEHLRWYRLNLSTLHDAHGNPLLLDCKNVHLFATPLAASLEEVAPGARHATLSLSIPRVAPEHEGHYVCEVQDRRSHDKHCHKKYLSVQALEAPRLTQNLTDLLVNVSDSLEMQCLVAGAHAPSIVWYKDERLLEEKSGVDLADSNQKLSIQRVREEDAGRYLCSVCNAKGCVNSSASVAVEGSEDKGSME

Biological target: Commercially available human VEGF-D (human) (UniProt O43915)
Test: ELISA; histidine-tagged ligand (2.5 μg/mL in PBS, overnight at 4 °C) captured on nickel coated high sensitivity multiwell plates; receptor-Fcγ added 2 h at 37 °C in 0.05% skim milk, 0.05% Tween 20 in PBS; detected with HRP-conjugated goat anti-human IgG antibody; both purified

Substance: Recombinant human VEGF receptor 3/Fcγ chimera (from UniProt P35916 25-775) (Fc fusion)
- binding: binds
